In the supplement of paper PMC10849652:
Some of the results follow.

Amino acid sequences for entries named in this document (tags omitted). A change or cut given only in a name is not applied to a line headed by its entry.
UniProt Q14562: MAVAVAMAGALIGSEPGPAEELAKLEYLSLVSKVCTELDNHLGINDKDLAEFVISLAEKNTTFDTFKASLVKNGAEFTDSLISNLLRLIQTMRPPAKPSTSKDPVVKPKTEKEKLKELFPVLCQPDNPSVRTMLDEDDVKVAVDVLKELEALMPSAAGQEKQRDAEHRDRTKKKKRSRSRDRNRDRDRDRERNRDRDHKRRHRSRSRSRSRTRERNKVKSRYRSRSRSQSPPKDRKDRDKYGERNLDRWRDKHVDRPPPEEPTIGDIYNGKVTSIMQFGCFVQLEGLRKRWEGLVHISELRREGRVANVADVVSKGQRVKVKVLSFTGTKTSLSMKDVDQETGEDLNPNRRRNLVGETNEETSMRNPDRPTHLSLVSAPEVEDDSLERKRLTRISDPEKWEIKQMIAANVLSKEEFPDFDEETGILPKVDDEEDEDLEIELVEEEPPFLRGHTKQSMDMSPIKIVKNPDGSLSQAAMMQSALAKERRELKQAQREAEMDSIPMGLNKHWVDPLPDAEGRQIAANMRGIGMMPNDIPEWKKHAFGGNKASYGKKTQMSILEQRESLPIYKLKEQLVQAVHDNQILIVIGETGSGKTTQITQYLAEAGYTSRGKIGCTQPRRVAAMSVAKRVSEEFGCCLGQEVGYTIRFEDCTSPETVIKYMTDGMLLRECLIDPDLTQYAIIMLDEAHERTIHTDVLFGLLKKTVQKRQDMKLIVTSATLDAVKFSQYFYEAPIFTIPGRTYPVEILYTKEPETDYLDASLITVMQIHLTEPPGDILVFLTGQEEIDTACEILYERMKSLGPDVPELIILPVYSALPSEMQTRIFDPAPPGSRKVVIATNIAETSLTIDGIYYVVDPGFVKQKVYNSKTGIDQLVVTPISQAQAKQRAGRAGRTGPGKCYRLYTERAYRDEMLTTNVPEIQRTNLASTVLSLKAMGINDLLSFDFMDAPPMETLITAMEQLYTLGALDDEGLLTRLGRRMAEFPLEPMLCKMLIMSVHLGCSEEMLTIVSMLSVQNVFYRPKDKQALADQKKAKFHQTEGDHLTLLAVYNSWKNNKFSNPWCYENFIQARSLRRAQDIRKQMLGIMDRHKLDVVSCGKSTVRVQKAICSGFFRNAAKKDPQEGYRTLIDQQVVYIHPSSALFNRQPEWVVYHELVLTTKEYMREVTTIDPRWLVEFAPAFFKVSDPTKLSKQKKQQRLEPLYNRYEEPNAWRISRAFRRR
UniProt P98153: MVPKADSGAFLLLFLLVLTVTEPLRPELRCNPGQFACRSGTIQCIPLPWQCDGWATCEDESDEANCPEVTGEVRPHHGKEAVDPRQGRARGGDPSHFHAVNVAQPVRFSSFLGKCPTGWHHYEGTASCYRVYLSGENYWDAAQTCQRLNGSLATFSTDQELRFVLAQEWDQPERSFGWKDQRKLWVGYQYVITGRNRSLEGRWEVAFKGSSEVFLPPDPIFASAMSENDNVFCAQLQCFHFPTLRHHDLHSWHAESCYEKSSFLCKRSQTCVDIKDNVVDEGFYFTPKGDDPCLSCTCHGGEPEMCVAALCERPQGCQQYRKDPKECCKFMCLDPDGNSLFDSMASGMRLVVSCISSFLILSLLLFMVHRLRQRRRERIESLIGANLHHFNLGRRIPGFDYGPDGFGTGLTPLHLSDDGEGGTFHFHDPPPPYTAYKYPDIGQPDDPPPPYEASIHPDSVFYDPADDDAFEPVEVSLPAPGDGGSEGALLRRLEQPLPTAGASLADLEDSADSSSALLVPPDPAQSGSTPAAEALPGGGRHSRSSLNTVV
UniProt Q9P265: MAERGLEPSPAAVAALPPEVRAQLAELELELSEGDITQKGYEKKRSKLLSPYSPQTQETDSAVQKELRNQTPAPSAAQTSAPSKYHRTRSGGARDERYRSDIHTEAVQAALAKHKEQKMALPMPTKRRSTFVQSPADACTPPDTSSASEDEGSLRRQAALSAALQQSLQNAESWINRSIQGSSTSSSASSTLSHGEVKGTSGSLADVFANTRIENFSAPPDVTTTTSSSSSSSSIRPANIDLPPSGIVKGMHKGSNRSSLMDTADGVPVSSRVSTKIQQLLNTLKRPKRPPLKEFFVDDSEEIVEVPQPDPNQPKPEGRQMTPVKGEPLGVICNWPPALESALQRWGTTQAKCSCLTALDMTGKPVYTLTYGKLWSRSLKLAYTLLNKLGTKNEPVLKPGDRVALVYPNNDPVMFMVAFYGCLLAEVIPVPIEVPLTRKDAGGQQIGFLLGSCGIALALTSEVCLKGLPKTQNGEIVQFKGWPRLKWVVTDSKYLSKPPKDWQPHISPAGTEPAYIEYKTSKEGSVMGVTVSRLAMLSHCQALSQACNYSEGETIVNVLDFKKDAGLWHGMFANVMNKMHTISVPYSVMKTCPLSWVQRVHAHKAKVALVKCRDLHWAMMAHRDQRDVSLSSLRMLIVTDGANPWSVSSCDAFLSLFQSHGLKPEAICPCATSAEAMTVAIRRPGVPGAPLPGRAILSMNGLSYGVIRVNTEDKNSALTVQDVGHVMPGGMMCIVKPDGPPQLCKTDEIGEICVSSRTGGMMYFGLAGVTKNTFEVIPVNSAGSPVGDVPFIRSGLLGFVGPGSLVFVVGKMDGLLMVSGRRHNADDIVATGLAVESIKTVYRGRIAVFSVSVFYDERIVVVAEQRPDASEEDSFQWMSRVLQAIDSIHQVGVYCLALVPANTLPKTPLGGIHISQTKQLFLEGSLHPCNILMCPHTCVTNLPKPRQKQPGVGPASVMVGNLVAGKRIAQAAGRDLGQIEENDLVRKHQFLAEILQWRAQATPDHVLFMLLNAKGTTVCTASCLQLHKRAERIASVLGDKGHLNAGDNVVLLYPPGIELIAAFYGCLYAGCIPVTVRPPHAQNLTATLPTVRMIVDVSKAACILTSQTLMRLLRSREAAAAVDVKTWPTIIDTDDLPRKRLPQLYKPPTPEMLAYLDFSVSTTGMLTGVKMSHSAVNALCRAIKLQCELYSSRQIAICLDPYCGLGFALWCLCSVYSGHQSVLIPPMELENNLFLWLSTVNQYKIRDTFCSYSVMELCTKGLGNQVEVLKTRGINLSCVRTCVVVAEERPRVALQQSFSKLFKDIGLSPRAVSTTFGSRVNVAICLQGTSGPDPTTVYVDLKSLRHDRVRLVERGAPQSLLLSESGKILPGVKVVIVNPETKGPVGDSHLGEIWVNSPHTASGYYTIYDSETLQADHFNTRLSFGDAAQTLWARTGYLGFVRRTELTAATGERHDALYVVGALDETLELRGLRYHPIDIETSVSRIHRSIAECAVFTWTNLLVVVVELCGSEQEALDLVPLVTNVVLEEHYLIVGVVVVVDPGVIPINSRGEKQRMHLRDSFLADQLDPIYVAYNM
UniProt Q9UJV9: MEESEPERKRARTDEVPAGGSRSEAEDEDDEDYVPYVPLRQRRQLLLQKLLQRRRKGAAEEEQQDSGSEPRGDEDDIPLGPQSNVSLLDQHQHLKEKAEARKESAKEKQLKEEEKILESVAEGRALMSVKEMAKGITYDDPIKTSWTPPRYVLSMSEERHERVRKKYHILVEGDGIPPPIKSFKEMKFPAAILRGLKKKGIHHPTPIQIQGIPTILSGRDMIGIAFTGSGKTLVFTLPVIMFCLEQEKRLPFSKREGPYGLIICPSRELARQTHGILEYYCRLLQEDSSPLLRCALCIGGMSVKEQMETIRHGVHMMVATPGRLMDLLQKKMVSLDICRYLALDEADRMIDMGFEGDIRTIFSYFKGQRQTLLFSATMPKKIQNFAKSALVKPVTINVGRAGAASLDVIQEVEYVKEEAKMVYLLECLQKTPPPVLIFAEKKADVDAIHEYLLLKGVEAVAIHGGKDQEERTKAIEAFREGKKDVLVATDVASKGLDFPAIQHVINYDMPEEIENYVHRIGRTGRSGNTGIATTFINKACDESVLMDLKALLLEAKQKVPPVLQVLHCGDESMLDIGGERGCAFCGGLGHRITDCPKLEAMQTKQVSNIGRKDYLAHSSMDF
UniProt Q9BTZ2: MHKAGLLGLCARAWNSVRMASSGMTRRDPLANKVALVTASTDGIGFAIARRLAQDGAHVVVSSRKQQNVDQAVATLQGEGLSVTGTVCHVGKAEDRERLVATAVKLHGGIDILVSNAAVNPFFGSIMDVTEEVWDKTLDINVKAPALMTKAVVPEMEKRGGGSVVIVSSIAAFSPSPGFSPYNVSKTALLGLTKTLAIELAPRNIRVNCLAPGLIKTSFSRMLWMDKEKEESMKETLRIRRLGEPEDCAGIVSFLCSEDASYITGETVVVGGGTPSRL
UniProt Q9UPY3: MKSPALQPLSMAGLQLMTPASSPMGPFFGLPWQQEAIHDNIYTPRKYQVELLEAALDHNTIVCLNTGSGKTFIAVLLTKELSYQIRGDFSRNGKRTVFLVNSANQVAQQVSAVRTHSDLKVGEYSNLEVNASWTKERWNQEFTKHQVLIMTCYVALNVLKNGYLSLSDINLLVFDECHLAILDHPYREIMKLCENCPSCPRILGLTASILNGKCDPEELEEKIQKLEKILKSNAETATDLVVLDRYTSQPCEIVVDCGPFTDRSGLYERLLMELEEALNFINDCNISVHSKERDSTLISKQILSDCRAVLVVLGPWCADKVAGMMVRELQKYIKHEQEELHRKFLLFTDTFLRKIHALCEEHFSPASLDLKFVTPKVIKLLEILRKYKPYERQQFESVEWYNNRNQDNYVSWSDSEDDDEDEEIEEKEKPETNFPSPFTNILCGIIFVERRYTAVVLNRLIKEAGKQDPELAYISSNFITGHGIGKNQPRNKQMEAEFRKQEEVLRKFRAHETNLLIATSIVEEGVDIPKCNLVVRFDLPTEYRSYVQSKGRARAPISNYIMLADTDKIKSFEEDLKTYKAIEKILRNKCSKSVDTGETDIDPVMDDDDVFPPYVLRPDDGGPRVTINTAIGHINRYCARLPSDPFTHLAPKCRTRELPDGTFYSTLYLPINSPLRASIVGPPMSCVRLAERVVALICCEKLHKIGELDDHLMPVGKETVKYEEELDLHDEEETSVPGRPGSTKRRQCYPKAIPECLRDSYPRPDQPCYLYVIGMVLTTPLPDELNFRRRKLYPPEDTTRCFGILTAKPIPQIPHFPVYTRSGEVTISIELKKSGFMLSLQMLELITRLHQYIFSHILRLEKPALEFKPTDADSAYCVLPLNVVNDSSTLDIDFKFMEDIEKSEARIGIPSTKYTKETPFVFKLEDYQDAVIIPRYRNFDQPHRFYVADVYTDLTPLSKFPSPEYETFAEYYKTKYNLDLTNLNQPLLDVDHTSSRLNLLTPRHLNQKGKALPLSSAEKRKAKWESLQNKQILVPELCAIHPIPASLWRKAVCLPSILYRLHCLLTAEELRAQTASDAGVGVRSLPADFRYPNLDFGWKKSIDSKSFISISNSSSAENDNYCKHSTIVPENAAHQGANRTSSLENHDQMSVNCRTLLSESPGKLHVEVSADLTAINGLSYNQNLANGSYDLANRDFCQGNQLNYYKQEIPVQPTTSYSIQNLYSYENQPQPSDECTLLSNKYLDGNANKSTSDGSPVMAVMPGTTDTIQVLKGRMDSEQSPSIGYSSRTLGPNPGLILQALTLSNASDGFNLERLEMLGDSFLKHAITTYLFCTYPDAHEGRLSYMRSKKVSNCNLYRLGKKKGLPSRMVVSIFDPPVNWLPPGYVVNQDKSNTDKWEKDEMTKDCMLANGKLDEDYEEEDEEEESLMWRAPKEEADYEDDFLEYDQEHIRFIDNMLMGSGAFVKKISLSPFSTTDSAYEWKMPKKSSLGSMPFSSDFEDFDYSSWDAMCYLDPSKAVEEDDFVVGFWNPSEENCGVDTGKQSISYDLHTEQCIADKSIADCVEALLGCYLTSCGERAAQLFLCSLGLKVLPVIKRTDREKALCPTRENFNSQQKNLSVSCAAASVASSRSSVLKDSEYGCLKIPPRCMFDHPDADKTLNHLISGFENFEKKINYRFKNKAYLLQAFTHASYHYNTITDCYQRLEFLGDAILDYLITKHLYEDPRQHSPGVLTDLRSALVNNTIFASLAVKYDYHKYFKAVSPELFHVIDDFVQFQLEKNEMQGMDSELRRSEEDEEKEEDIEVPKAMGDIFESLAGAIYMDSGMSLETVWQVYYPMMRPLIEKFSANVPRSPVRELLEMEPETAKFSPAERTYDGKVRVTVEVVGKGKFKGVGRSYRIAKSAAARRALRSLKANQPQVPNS
UniProt Q7Z4W1: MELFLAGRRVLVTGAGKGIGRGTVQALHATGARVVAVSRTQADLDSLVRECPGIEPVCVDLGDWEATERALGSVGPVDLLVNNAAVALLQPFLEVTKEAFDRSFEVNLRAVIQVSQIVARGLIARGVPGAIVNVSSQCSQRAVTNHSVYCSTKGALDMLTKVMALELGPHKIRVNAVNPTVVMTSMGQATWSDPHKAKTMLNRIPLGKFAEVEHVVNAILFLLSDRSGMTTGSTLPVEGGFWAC

Tests used:
Assay in all cases: log2 fold change, soluble protein after heating vs DMSO (PISA); higher = thermal stabilisation; K562 cells, 10 uM, 30 min; active = over 0.2 and 3.5 SD of the protein, either way, in both replicates (recomputed)
[1] = compound: CN1CCN(CCOc2cc(OC3CCOCC3)c3c(Nc4c(Cl)ccc5c4OCO5)ncnc3c2)CC1 [saracatinib]
Method in brief: (§1)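 K562 cells at 2×10^6 cells/mL were treated with 10 μM compound for 30 min. Aliquots were heated for 3 min across 48°C-58°C, pooled, and extracted in PBS with 0.5% NP-40 at 4°C; soluble protein was the supernatant after 21,000xg for 90 min. Soluble protein was quantified by TMTpro 16plex LC-MS/MS with channel sums equalised, and reported as log2 fold change in thermal stability against DMSO controls, with values from duplicates.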

[2] = compound: CN1CCN(c2nc(C3=C(c4c[nH]c5ccccc45)C(=O)NC3=O)c3ccccc3n2)CC1 [sotrastaurin]
Method in brief: as §1

[3] = compound: CN1CC[C@H](c2c(O)cc(O)c3c(=O)cc(-c4ccccc4Cl)oc23)[C@H](O)C1 [alvocidib]
Method in brief: as §1

[4] = compound: CN1CCc2c(c3ccccc3n2Cc2ccc(C(=O)NO)cc2)C1 [Tubastatin A]
Method in brief: as §1

[5] = compound: CNC(=O)C1=CC=CC=C1NC2=NC(=NC=C2Cl)NC3=C(C=C(C=C3)N4CCOCC4)OC
Method in brief: as §1

[6] = compound: CNC(=O)c1ccc(Nc2ncc(C(F)(F)F)c(NCc3nccnc3N(C)S(C)(=O)=O)n2)cc1 [defactinib]
Method in brief: as §1

[7] = compound: CNCc1ccc(-c2[nH]c3cc(F)cc4c3c2CCNC4=O)cc1 [rucaparib]
Method in brief: as §1

[8] = compound: CNc1nc(-c2ccc3c(N)n[nH]c3c2)cc(N2C[C@@H](C(=O)NC3CCCCC3)CC[C@H]2C)n1
Method in brief: as §1

[9] = compound: COC(=O)N[C@@H](C)CNc1nccc(-c2cn(C(C)C)nc2-c2cc(Cl)cc(NS(C)(=O)=O)c2F)n1 [encorafenib]
Method in brief: as §1

[10] = compound: COC(=O)[C@H](CCSC)NC(=O)C1=C(C=C(C=C1)NC[C@H](CS)N)C2=CC=CC=C2
Method in brief: as §1

[11] = compound: COC1=CC=C(C=C1)CN2C=CC3=C2C=C(C=C3)C(=O)NO
Method in brief: as §1

[12] = compound: CON(C)C(=O)N1N=C(c2cc(F)ccc2F)S[C@@]1(CCCN)c1ccccc1 [filanesib]
Method in brief: as §1

[13] = compound: CO[C@H]1C[C@@H]2CC[C@@H](C)[C@@](O)(O2)C(=O)C(=O)N2CCCC[C@H]2C(=O)O[C@H]([C@H](C)C[C@@H]2CC[C@H](n3cnnn3)[C@H](OC)C2)CC(=O)[C@H](C)/C=C(\C)[C@@H](O)[C@@H](OC)C(=O)[C@H](C)C[C@H](C)/C=C/C=C/C=C/1C [zotarolimus]
Method in brief: as §1

[14] = compound: COc1cc(C(=O)O)ccc1NC(=O)[C@@H]1N[C@@H](CC(C)(C)C)[C@](C#N)(c2ccc(Cl)cc2F)[C@H]1c1cccc(Cl)c1F [idasanutlin]
Method in brief: as §1

[15] = compound: COc1cc(Nc2ncc3c(n2)-c2ccc(Cl)cc2C(c2c(F)cccc2OC)=NC3)ccc1C(=O)O [alisertib]
Method in brief: as §1

[16] = compound: COc1cc2nc(-c3cc(F)ccc3O)nc(N[C@@H]3CNC[C@H]3C(C)(C)O)c2cc1OC
Method in brief: as §1

[17] = compound: COc1cc2ncnc(Nc3ccc(F)c(Cl)c3)c2cc1OCCCN1CCOCC1 [gefitinib]
Method in brief: as §1

[18] = compound: COc1cccc2cc(-c3nc([C@H]4CC[C@H](C(=O)O)CC4)n4ncnc(N)c34)[nH]c12
Method in brief: as §1

[19] = compound: CS(=O)(=O)CCNCc1ccc(-c2ccc3ncnc(Nc4ccc(OCc5cccc(F)c5)c(Cl)c4)c3c2)o1 [lapatinib]
Method in brief: as §1

[20] = compound: CS(=O)(=O)N1CCN(Cc2cc3nc(-c4cccc5[nH]ncc45)nc(N4CCOCC4)c3s2)CC1 [pictilisib]
Method in brief: as §1

Measured: log2 fold change

DDX56 (UniProt Q9NY93)
inactive: [1] -0.063 | [2] -0.065 | [3] 0.166 | [4] 0.24 | [5] 0.081 | [6] 0.088 | [7] 0.046 | [8] 0.101 | [9] 0.084 | [10] -0.026 | [11] -0.029 | [12] 0.268 | [13] -0.006 | [14] 0.144 | [15] -0.237 | [16] -0.108 | [17] 0.004 | [18] -0.137 | [19] 0.154 | [20] -0.018

DLG1 isoform 2 (UniProt Q12959)
inactive: [1] 0.039 | [2] -0.019 | [3] -0.06 | [4] 0.039 | [5] 0.051 | [6] -0.085 | [7] 0.058 | [8] 0.018 | [9] -0.092 | [10] 0.12 | [11] -0.018 | [12] -0.033 | [13] 0.034 | [14] 0.098 | [15] -0.043 | [16] -0.026 | [17] 0.028 | [18] 0.003 | [19] 0.062 | [20] -0.006

DHX8 (UniProt Q14562)
inactive: [1] -0.013 | [2] 0.035 | [3] 0.117 | [4] -0.035 | [5] -0.066 | [6] 0.066 | [7] 0.015 | [8] -0.036 | [9] -0.006 | [10] 0.016 | [11] -0.173 | [12] 0.014 | [13] -0.054 | [14] 0.005 | [15] -0.078 | [16] 0.164 | [17] 0.002 | [18] 0.029 | [19] -0.107 | [20] 0.116

DECR1 (UniProt Q16698)
inactive: [1] 0.031 | [2] 0.016 | [3] -0.037 | [4] -0.034 | [5] 0.001 | [6] -0.006 | [7] -0.02 | [8] 0.02 | [9] 0 | [10] -0.018 | [11] 0.023 | [12] -0.016 | [13] 0.001 | [14] -0.063 | [15] 0.002 | [16] -0.049 | [17] -0.005 | [18] 0.004 | [19] 0.012 | [20] -0.06

DHX38 (UniProt Q92620)
inactive: [1] 0.008 | [2] 0.023 | [3] -0.004 | [4] -0.031 | [5] 0.004 | [6] -0.041 | [7] -0.059 | [8] -0.021 | [9] -0.002 | [10] -0.013 | [11] -0.024 | [12] -0.005 | [13] -0.015 | [14] -0.016 | [15] -0.044 | [16] 0.044 | [17] -0.024 | [18] 0.026 | [19] 0.01 | [20] 0.055

DGKZ (UniProt Q13574)
inactive: [1] 0.027 | [2] -0.215 | [3] -0.039 | [4] 0.105 | [5] 0.006 | [6] 0.206 | [7] 0.085 | [8] -0.049 | [9] -0.026 | [10] 0.092 | [11] -0.015 | [12] 0.053 | [13] 0.019 | [14] 0.187 | [15] -0.008 | [16] 0.217 | [17] 0.089 | [18] -0.091 | [19] 0.022 | [20] -0.03

DGCR2 (UniProt P98153)
inactive: [1] 0.01 | [2] 0.034 | [3] -0.002 | [4] -0.023 | [5] -0.011 | [6] 0.03 | [7] -0.035 | [8] -0.086 | [9] 0.033 | [10] -0.044 | [11] 0.005 | [12] -0.01 | [13] 0.009 | [14] -0.049 | [15] -0.113 | [16] 0.005 | [17] -0.096 | [18] 0.102 | [19] 0.006 | [20] 0.055

DMAC2 isoform 4 (UniProt Q9NW81)
inactive: [1] 0.075 | [2] 0 | [3] 0.03 | [4] 0.065 | [5] 0.037 | [6] 0.059 | [7] -0.034 | [8] -0.091 | [9] -0.074 | [10] -0.056 | [11] 0.026 | [12] 0.104 | [13] -0.063 | [14] -0.117 | [15] -0.056 | [16] 0.031 | [17] -0.015 | [18] 0.038 | [19] 0.069 | [20] 0.031

DIP2B (UniProt Q9P265)
inactive: [1] 0.02 | [2] -0.005 | [3] -0.015 | [4] -0.017 | [5] -0.017 | [6] -0.041 | [7] -0.017 | [8] 0.004 | [9] 0.004 | [10] -0.018 | [11] -0.023 | [12] -0.041 | [13] 0.009 | [14] -0.053 | [15] -0.036 | [16] 0.001 | [17] 0.013 | [18] 0.024 | [19] 0.016 | [20] 0.045

DENND4B (UniProt O75064)
inactive: [1] 0.079 | [2] -0.074 | [3] -0.042 | [4] 0.01 | [5] -0.017 | [6] -0.053 | [8] 0 | [10] -0.013 | [11] -0.117 | [12] 0.113 | [13] 0.064 | [14] 0.037 | [15] -0.043 | [16] 0.083 | [17] 0.064 | [18] 0.137 | [19] 0.147 | [20] 0.05

DDX41 (UniProt Q9UJV9)
inactive: [1] -0.14 | [2] -0.012 | [3] 0.012 | [4] 0.034 | [5] 0.056 | [6] -0.01 | [7] -0.014 | [8] 0.007 | [9] 0 | [10] 0.024 | [12] -0.007 | [13] -0.016 | [14] 0.025 | [15] -0.012 | [16] -0.094 | [17] -0.026 | [18] 0.075 | [19] -0.141 | [20] 0.051

DHRS4 (UniProt Q9BTZ2)
inactive: [1] 0.081 | [2] -0.001 | [3] 0 | [4] -0.039 | [5] 0.002 | [6] -0.051 | [7] -0.071 | [8] 0.001 | [9] 0 | [10] 0.002 | [11] 0.113 | [12] -0.103 | [13] -0.014 | [14] -0.008 | [15] -0.045 | [16] -0.004 | [17] 0.045 | [18] 0.04 | [19] 0.015 | [20] -0.034

DICER1 (UniProt Q9UPY3)
inactive: [1] -0.126 | [2] 0.035 | [3] 0.161 | [4] 0.262 | [5] -0.097 | [6] -0.095 | [8] -0.057 | [10] -0.087 | [12] 0.071 | [13] -0.066 | [14] 0.148 | [15] 0.767 | [16] 0.03 | [17] 0.063 | [18] 0.049 | [19] -0.115 | [20] 0.04

Taken from the results shown (two entries):
DHRS4 (UniProt Q9BTZ2)
inactive: [1] 0.081 | [2] -0.001 | [3] 0 | [4] -0.039 | [5] 0.002 | [6] -0.051 | [7] -0.071 | [8] 0.001 | [9] 0 | [10] 0.002 | [11] 0.113 | [12] -0.103 | [13] -0.014 | [14] -0.008 | [15] -0.045 | [16] -0.004 | [17] 0.045 | [18] 0.04 | [19] 0.015 | [20] -0.034

DICER1 (UniProt Q9UPY3)
inactive: [1] -0.126 | [2] 0.035 | [3] 0.161 | [4] 0.262 | [5] -0.097 | [6] -0.095 | [8] -0.057 | [10] -0.087 | [12] 0.071 | [13] -0.066 | [14] 0.148 | [15] 0.767 | [16] 0.03 | [17] 0.063 | [18] 0.049 | [19] -0.115 | [20] 0.04

The listing continues:

DNAAF5 (UniProt Q86Y56)
inactive: [1] -0.084 | [2] -0.22 | [3] 0.217 | [4] 0.08 | [6] 0.058 | [7] 0.398 | [8] 0.138 | [9] 0.353 | [10] -0.17 | [11] 0.022 | [12] 0.307 | [13] 0.184 | [14] 0.234 | [15] -0.187 | [16] -0.051 | [18] -0.307 | [19] 0.097 | [20] -0.053

DDI2 isoform 3 (UniProt Q5TDH0)
inactive: [1] 0.044 | [2] -0.003 | [3] -0.072 | [4] -0.011 | [5] -0.003 | [6] -0.064 | [7] -0.019 | [8] -0.029 | [9] -0.028 | [10] -0.028 | [11] 0.009 | [12] -0.057 | [13] 0.016 | [14] -0.032 | [15] -0.049 | [16] -0.043 | [17] -0.02 | [18] 0.035 | [19] 0.03 | [20] 0

DDX42 (UniProt Q86XP3)
inactive: [1] -0.113 | [2] -0.072 | [3] -0.127 | [4] 0.021 | [5] 0.007 | [7] -0.006 | [8] -0.046 | [9] -0.06 | [11] 0.148 | [12] 0.015 | [13] 0.044 | [14] -0.03 | [16] 0.055 | [19] -0.059 | [20] 0.067

DCXR (UniProt Q7Z4W1)
inactive: [1] 0.028 | [2] 0.049 | [3] -0.005 | [4] -0.015 | [5] -0.005 | [6] -0.032 | [7] -0.037 | [8] -0.052 | [9] -0.032 | [10] 0.015 | [11] -0.06 | [12] 0.006 | [13] -0.006 | [14] -0.042 | [15] -0.065 | [16] 0.052 | [17] -0.013 | [18] 0.053 | [19] -0.019 | [20] 0.099
